Measurements as given in patent US7276484B2, “Dipeptide inhibitors of β-secretase” (Elan Pharmaceuticals, Inc., priority 1999, dated 2007).
Structures were worked out from names or drawings and are uncertain.

By UniProt entry, the sequences of proteins in these tests, tags left out. Residues count along the entry.
UniProt P56817, 46-501 limits assumed: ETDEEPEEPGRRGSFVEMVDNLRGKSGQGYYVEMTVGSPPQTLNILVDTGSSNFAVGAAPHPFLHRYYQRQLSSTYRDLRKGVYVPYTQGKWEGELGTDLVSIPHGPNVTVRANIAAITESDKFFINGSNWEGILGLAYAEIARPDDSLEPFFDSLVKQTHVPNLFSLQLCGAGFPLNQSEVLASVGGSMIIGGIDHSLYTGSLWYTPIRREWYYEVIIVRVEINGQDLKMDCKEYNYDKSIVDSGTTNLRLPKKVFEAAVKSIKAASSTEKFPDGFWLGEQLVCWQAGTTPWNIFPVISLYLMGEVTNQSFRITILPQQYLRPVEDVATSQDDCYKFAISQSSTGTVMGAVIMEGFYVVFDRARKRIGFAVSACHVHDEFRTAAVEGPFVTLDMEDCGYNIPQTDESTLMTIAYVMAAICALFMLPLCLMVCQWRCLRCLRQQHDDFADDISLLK

Target: Human brain β-Secretase (Homo sapiens, UniProt P56817)
Assay: MBP-C125 enzyme inhibition assay (ELISA detection of β-secretase cleavage of MBP-C125 substrate)
Settings: read-out: IC50 Grouping, pH 4.5, 37° C., 90 minutes

SMILES: CC(C)C[C@H](NC(=O)[C@H](O)c1cccc2ccccc12)[C@@H](O)CC(=O)N[C@H](C(=O)NCCc1ccc(C(=O)O)cc1)C(C)C
- IC50: 100 to 200 µM
